Results are given in words; binding and its absence hold for the method and conditions named. Binding seen in cells or lysates may run through a third protein. Here binding means that the protein was enriched with, or labelled near, the bait; the list need not be complete.

Binding data for one molecule are collected here from paper doi:10.1101/2020.05.13.093591.

In this experiment the target is PfJ2 (PF3D7_1108700), 3xHA-tagged at the endogenous locus (P. falciparum (3D7)). Put plainly: affinity purification with mass spectrometry.

B1: PfRhopH3 (protein, UniProt Q8I395 25-897)
chain: KDVFAGFVTKKLKTLLDCNFALYYNFKGNGPDAGSFLDFVDEPEQFYWFVEHFLSVKFRVPKHLKDKNIHNFTPCLNRSWVSEFLKEYEEPFVNPVMKFLDKEQRLFFTYNFGDVEPQGKYTYFPVKEFHKYCILPPLIKTNIKDGESGEFLKYQLNKEEYKVFLSSVGSQMTAIKNLYSTVEDEQRKQLLKVIIENESTNDISVQCPTYNIKLHYTKECANSNNILKCIDEFLRKTCEKKTESKHPSADLCEHLQFLFESLKNPYLDNFKKFMTNSDFTLIKPQSVWNVPIFDIYKPKNYLDSVQNLDTECFKKLNSKNLIFLSFHDDIPNNPYYNVELQEIVKLSTYTYSIFDKLYNFFFVFKKSGAPISPVSVKELSHNITDFSFKEDNSEIQCQNVRKSLDLEVDVETMKGIAAEKLCKIIEKFILTKDDASKPEKSDIHRGFRILCILISTHVEAYNIVRQLLNMESMISLTRYTSLYIHKFFKSVTLLKGNFLYKNNKAIRYSRACSKASLHVPSVLYRRNIYIPETFLSLYLGLSNLVSSNPSSPFFEYAIIEFLVTYYNKGSEKFVLYFISIISVLYINEYYYEQLSCFYPKEFELIKSRMIHPNIVDRILKGIDNLMKSTRYDKMRTMYLDFESSDIFSREKVFTALYNFDSFIKTNEQLKKKNLEEISEIPVQLETSNDGIGYRKQDVLYETDKPQTMDEASYEETVDEDAHHVNEKQHSAHFLDAIAEKDILEEKTKDQDLEIELYKYMGPLKEQSKSTSAASTSDEISGSEGPSTESTSTGNQGEDKTTDNTYKEMEELEEAEGTSNLKKGLEFYKSSLKLDQLDKEKPKKKKSKRKKKRDSSSDRILLEESKTFTSENEL
As to B1, the binding entry is “binds”.
